Laboratory results as given in patent publication US20030152946A1, “Bh4-fused polypeptides” (priority 1999, published 2003).
Results are given in words; binding and its absence hold for the method and conditions named. Some entries that bind do so weakly or less than the wild type.

The chains behind the UniProt entries cited, without tags or fusion partners. Residues count along the entry.
UniProt Q9Z2L0, residues 2-283: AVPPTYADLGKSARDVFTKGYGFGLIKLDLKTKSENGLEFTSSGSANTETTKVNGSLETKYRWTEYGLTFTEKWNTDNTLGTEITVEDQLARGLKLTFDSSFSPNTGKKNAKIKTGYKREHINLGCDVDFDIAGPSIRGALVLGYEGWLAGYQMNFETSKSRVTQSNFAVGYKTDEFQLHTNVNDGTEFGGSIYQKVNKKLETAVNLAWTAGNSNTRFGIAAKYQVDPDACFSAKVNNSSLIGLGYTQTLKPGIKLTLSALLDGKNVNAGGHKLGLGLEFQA

Molecular target: rat liver VDAC (voltage-dependent anion channel) (rat) (UniProt Q9Z2L0)
Assay: peptide incubated with isolated mitochondria, immunoprecipitation with anti-Bcl-xL S18, Western blot with anti-VDAC

binding: binds
Binder: SQSNRELVVDFLSYKLSQ [N-terminal (amino acid nos: 2 to 19) polypeptide of Bcl-xL]
